This is a selection; strong and weak results do not stand in their true shares. For part of these data: At the low end of the ranking, values are background and their order means little. Some of the results follow. For part of these data: The exact form of the protein is not confirmed.
How the values were obtained:
Test in all cases: DAPPL (digital affinity profiling via proximity ligation, sequencing)
Details in all cases: 10 mM Tris-HCl pH 7.5, 50 mM NaCl, 1 mM DTT, 4% glycerol, room temperature, 30 min; GST-TFs on glutathione beads, 16-mer random dsDNA library, 0.1% …; high values mean tight binding; double strand, one strand shown; scale: fold enrichment (6-mer frequency, TF over GST control)
ERG = biological target: T1, ERG (UniProt P11308)
T1 sequence: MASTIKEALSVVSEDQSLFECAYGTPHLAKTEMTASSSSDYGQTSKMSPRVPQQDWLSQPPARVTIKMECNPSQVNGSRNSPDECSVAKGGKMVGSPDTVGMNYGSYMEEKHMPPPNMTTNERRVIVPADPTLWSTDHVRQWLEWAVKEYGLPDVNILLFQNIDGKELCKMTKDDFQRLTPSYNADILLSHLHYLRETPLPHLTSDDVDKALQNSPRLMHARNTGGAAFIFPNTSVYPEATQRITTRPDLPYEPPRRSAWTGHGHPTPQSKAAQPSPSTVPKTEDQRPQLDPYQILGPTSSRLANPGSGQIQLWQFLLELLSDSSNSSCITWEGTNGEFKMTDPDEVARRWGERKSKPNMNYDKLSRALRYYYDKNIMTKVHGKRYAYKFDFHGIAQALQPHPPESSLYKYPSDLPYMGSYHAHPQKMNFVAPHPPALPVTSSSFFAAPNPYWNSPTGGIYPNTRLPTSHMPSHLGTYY

Protein sequences, listed by entry. Tags and fused reporters are not part of them. Lines headed by an entry give the natural chain unless they say otherwise; changes in a name come on top.
UniProt P32519: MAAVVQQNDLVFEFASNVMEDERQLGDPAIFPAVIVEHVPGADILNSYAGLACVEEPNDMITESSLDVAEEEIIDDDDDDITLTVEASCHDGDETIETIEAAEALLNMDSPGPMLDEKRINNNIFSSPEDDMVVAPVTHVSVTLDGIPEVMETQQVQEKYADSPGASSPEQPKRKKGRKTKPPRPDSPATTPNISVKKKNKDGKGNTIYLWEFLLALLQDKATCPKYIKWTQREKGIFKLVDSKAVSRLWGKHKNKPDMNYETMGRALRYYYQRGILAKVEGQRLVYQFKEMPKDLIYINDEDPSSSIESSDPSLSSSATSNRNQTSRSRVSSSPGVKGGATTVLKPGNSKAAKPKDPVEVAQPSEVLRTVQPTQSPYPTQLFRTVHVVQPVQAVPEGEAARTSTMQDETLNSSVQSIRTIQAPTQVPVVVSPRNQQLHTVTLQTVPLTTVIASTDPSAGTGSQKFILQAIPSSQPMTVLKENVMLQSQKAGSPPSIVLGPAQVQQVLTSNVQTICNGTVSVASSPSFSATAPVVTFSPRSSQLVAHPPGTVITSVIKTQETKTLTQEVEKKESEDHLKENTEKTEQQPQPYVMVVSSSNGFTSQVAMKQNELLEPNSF
UniProt P50549: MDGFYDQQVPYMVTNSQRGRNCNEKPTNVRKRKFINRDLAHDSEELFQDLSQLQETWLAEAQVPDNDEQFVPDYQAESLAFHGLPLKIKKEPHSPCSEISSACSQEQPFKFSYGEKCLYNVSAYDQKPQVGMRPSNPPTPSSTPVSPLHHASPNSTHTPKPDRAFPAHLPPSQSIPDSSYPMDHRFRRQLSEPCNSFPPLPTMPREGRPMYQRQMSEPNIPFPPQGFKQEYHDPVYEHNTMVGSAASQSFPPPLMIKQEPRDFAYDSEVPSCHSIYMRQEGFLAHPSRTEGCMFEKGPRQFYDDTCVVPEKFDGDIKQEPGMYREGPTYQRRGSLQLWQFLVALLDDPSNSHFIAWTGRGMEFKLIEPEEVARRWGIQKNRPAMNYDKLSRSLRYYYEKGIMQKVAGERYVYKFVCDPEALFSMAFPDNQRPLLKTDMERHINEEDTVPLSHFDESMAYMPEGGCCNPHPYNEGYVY

ELF1 = ELF1 (UniProt P32519)
ELK4 = biological target: T2, ELK4 (UniProt P28324-2)
T2 sequence: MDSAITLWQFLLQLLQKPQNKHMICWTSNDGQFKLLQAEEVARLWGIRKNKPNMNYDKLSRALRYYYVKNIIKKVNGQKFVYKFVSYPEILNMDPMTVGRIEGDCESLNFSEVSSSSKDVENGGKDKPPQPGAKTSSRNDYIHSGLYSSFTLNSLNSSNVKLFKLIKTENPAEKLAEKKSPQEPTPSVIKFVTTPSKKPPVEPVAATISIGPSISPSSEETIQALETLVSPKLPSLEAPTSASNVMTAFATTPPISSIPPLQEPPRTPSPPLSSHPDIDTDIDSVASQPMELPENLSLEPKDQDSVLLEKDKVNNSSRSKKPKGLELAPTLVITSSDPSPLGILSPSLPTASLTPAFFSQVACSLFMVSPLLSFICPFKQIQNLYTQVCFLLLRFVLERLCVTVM

ETV4 = biological target: T3, ETV4 (UniProt P43268)
T3 sequence: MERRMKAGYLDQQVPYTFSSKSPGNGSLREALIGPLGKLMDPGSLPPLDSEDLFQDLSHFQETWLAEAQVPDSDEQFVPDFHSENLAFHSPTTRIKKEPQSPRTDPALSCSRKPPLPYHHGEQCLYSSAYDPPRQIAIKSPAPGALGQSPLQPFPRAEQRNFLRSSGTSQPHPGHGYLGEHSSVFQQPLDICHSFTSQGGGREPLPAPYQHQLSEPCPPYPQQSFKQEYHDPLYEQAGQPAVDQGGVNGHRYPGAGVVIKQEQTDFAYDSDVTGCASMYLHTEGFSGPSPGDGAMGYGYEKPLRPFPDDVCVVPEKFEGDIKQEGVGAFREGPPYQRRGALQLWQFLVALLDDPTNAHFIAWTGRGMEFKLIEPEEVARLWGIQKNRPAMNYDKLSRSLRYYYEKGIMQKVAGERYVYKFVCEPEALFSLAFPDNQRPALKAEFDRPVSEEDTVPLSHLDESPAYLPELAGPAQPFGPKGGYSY

ETV1 = ETV1 (UniProt P50549)
ERF = biological target: T4, ERF (UniProt P50548)
T4 sequence: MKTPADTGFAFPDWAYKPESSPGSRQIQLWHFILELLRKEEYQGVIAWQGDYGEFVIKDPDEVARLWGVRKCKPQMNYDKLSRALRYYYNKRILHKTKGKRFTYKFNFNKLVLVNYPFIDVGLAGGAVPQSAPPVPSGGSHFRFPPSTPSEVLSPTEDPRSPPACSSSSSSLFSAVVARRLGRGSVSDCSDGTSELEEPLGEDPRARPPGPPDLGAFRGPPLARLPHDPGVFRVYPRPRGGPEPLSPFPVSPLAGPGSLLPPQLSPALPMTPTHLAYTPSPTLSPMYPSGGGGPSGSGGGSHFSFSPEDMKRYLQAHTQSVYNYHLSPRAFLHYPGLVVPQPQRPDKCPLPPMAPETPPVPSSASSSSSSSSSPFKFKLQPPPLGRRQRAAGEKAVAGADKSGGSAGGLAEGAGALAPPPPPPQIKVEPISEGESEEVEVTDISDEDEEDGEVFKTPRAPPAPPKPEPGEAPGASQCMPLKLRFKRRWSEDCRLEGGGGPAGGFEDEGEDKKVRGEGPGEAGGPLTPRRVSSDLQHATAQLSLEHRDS

Row | Sequence | binding signal (ERG) | binding signal (ELF1) | binding signal (ELK4) | binding signal (ETV4) | binding signal (ETV1) | binding signal (ERF)
1 | CCGAGT | 0.966 | 0.943 | 0.976 | 0.891 | 0.863 | 0.955
2 | GCAAGG | 0.778 | 0.775 | 0.901 | 0.778 | 0.837 | 0.777
3 | CCAGCC | 0.829 | 0.813 | 0.873 | 0.768 | 0.714 | 0.766
4 | AGTCGC | 0.542 | 0.523 | 0.524 | 0.503 | 0.504 | 0.453
5 | TCGTAG | 0.841 | 0.84 | 0.926 | 0.851 | 0.808 | 0.794
6 | ATCGAG | 0.83 | 0.858 | 0.867 | 0.862 | 0.869 | 0.937
7 | ACGAGG | 0.74 | 0.814 | 0.776 | 0.805 | 0.74 | 0.742
8 | ACAGGC | 0.692 | 0.687 | 0.657 | 0.654 | 0.703 | 0.698
9 | GGGTAA | 0.83 | 0.889 | 0.982 | 0.887 | 0.946 | 0.908
10 | TCGGGA | 0.396 | 0.368 | 0.383 | 0.389 | 0.381 | 0.397
11 | GCAGAC | 0.729 | 0.694 | 0.717 | 0.69 | 0.728 | 0.69
12 | GGGGTA | 0.746 | 0.727 | 0.732 | 0.766 | 0.848 | 0.703
13 | GGCGCC | 0.72 | 0.72 | 0.834 | 0.786 | 0.711 | 0.711
14 | GTTCGG | 0.612 | 0.65 | 0.658 | 0.645 | 0.568 | 0.68
15 | CCAGAC | 0.686 | 0.668 | 0.663 | 0.652 | 0.675 | 0.642
16 | GTCAAC | 0.869 | 0.876 | 0.945 | 0.891 | 0.925 | 0.962
17 | CAGGTC | 0.693 | 0.657 | 0.775 | 0.693 | 0.746 | 0.696
18 | GTCGAT | 0.7 | 0.674 | 0.726 | 0.675 | 0.714 | 0.663
19 | GGATTG | 0.817 | 0.778 | 0.802 | 0.781 | 0.867 | 0.83
20 | AGTTGA | 0.783 | 0.785 | 0.861 | 0.805 | 0.76 | 0.85

Row | Sequence | binding signal (ERG) | binding signal (ELF1) | binding signal (ELK4) | binding signal (ETV4) | binding signal (ETV1) | binding signal (ERF)
21 | AGTCAC | 0.846 | 0.768 | 0.769 | 0.783 | 0.781 | 0.744
22 | CAGCCG | 0.71 | 0.689 | 0.653 | 0.718 | 0.653 | 0.656
23 | GGTCGC | 0.812 | 0.825 | 0.796 | 0.863 | 0.935 | 0.877
24 | CGTGAC | 0.562 | 0.554 | 0.603 | 0.556 | 0.539 | 0.567
25 | GATCAG | 0.67 | 0.749 | 0.749 | 0.734 | 0.759 | 0.754
26 | ATTGGA | 0.917 | 0.913 | 0.835 | 0.937 | 0.872 | 0.911
27 | GTGATA | 0.658 | 0.68 | 0.711 | 0.637 | 0.622 | 0.656
28 | ACCATG | 0.849 | 0.871 | 0.959 | 0.818 | 0.792 | 0.881
29 | ACAGGG | 0.85 | 0.761 | 0.715 | 0.791 | 0.751 | 0.848
30 | TCAGTC | 0.591 | 0.639 | 0.624 | 0.644 | 0.625 | 0.576
31 | GGCGGC | 0.597 | 0.593 | 0.561 | 0.591 | 0.502 | 0.531
32 | CGGAGG | 0.305 | 0.275 | 0.261 | 0.287 | 0.296 | 0.268
33 | GATGTG | 0.945 | 0.896 | 0.906 | 0.963 | 0.955 | 0.856
34 | GGCGGT | 0.414 | 0.408 | 0.378 | 0.39 | 0.391 | 0.427
35 | GAGGAG | 0.235 | 0.222 | 0.193 | 0.21 | 0.21 | 0.231
36 | GAACGC | 0.712 | 0.751 | 0.771 | 0.735 | 0.769 | 0.798
37 | GTAAGG | 0.67 | 0.766 | 0.711 | 0.715 | 0.766 | 0.706
38 | TGAGCC | 0.805 | 0.904 | 0.777 | 0.89 | 0.771 | 0.802
39 | AGCGTT | 0.875 | 0.939 | 0.957 | 0.842 | 0.937 | 0.964
40 | GGAGGA | 0.28 | 0.238 | 0.202 | 0.245 | 0.262 | 0.265

Some values from above:
GTTCGG – binding signal (ELK4): 0.658
CAGGTC – binding signal (ETV4): 0.693

(continued)

Row | Sequence | binding signal (ERG) | binding signal (ELF1) | binding signal (ELK4) | binding signal (ETV4) | binding signal (ETV1) | binding signal (ERF)
41 | CGAGTC | 0.518 | 0.508 | 0.464 | 0.551 | 0.511 | 0.52
42 | TCGGCG | 0.487 | 0.496 | 0.577 | 0.503 | 0.514 | 0.545
43 | TGGAGG | 0.492 | 0.426 | 0.488 | 0.441 | 0.485 | 0.514
44 | GACCAC | 0.845 | 0.927 | 0.85 | 0.907 | 0.834 | 0.881
45 | CCGTGG | 0.409 | 0.381 | 0.54 | 0.462 | 0.409 | 0.453
46 | GTTAGA | 0.729 | 0.782 | 0.808 | 0.78 | 0.727 | 0.782
47 | GGGGGA | 0.668 | 0.577 | 0.536 | 0.544 | 0.584 | 0.628
48 | AGGACG | 0.496 | 0.473 | 0.463 | 0.477 | 0.45 | 0.443
49 | GTTGTG | 0.913 | 0.894 | 1.07 | 0.921 | 0.77 | 0.814
50 | GTGGGC | 0.734 | 0.755 | 0.61 | 0.748 | 0.708 | 0.767
51 | GCATGG | 0.934 | 0.821 | 0.888 | 0.855 | 0.947 | 0.941
52 | AGCGGA | 0.82 | 0.715 | 0.671 | 0.782 | 0.792 | 0.744
53 | ACCGTG | 0.219 | 0.209 | 0.261 | 0.243 | 0.237 | 0.246
54 | GCCGTG | 0.241 | 0.221 | 0.265 | 0.242 | 0.238 | 0.253
55 | GTGTGA | 0.535 | 0.579 | 0.699 | 0.613 | 0.674 | 0.493
56 | CCGTGC | 0.665 | 0.564 | 0.551 | 0.629 | 0.647 | 0.628
57 | AGTCAG | 0.481 | 0.481 | 0.428 | 0.464 | 0.54 | 0.465
58 | CGTGTG | 0.409 | 0.424 | 0.462 | 0.427 | 0.465 | 0.434
59 | AGTAGG | 0.675 | 0.597 | 0.585 | 0.626 | 0.688 | 0.631
60 | GGCCGC | 0.853 | 0.867 | 0.854 | 0.892 | 0.799 | 0.807

— PMC7862700
